This data set is described as follows: Liquid dish neat product liquid-air partition coefficient. The data set is classed as physicochemical.

Structures are written as SMILES.

Turning to `O=C(c1ccccc1)c1ccccc1` [Material 655], the “Log of liquid dish neat product liquid-air partition coefficient (Comment Code K/L)” value is “K (Log of liquid dish neat product liquid-air partition coefficient greater than or equal to −7)”.

The values are drawn from patent publication US20160090556A1, “PRODUCTS COMPRISING MALODOR REDUCTION MATERIALS” (The Procter & Gamble Company, priority 2014, published 2016).
